Patent US20060165706A1
Results are given in words; binding and its absence hold for the method and conditions named.

Target: CHO.B7.1
Experiment: FACS, direct staining of CHO.B7.1 control cells with FITC-labeled murine CTLA4-26B (key in FIG. 6D)

binding: no binding (tested: 125 ng)
B1: murine anti-human CTLA4 monoclonal antibody number 26 (antibody, V domains shown)
VH: QVQLKESGPGLVAPSQSLSITCTVSGFSLTSYGVYWVRQPPGKGLEWLGVIWAGGTTNYNSALMSRLSISKDNSKSQVFLKMSSLQTDDTAMYYCARGPPHAMMKRGYAMDYWGQGTSVIVSS
VL: QNVLTQSPAIMPASPGEKVTMTCSATSSITYMSWYQQKSGSSPRLLIYDTSNLASGVPVRFSGSGSGTSYSLTISRMEAEDAATYYCQQWSSYPLTFGAGTKLELK
